# Laboratory results published in the supplement of paper PMC8866396.
# ± gives the standard deviation of the averaged measurements. The list shows a part of the results. Repeats in this data set agree poorly, so a single value says little.
# Tests used:
# IL-6-GFP PC-9GR = experiment: IL-6-GFP fluorescence relative to DMSO control (fraction of control); higher = more IL-6-GFP expression; conditions: compound concentration: 10 uM; treatment time: 48 h
# Experimental: (§1)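 IL-6-GFP-overexpressing PC-9 and PC-9GR EGFR-mutant lung cancer cells (3000 cells/well, 96-well) were treated for 48 h with each compound of the Selleck L2000 library at 10 uM. IL-6-GFP fluorescence was read on a high-content screening system, and viability by CCK-8 absorbance on a parallel plate set. Each value was normalised as compound well / DMSO control well; two independent replicates.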
# IL-6-GFP PC-9 = experiment: as above; conditions: compound concentration: 10 uM; treatment time: 48 h
# Experimental: as §1
Compound,IL-6-GFP fluorescence (IL-6-GFP PC-9GR),IL-6-GFP fluorescence (IL-6-GFP PC-9)
CN(C)c1nc(N(C)C)nc(N(C)C)n1 [Altretamine],1.14 ± 0.083,0.712 ± 0.28
O=C(O)COc1nn(Cc2ccccc2)c2ccccc12 [Bendazac],0.807 ± 0.18,0.853 ± 0.13
COc1nc(N)nc2c1ncn2C1OC(CO)C(O)C1O (stereo not given) [Nelarabine],0.989 ± 0.062,0.922 ± 0.026
CN1CCC(=C2c3ccccc3CCn3c(C=O)cnc32)CC1 [Alcaftadine],0.488 ± 0.42,0.894 ± 0.015
CCC1(O)CC2CN(CCc3c([nH]c4ccccc34)C(C(=O)OC)(c3cc4c(cc3OC)N(C=O)C3C(O)(C(=O)OC)C(OC(C)=O)C5(CC)C=CCN6CCC43C65)C2)C1.O=S(=O)(O)O (stereo not given) [Vincristine sulfate],1.05 ± 0.029,1.01 ± 0.06
O=C(/C=C/c1ccc(O)c(O)c1)OC(Cc1ccc(O)c(O)c1)C(=O)O (stereo not given) [Rosmarinic acid],1.41 ± 0.73,1.38 ± 0.52
CC(C)CC(NC(=O)C(Cc1ccccc1)NC(=O)c1cnccn1)B(O)O (stereo not given) [Bortezomib (PS-341)],1.1 ± 0.12,1.1 ± 0.27
NCCc1c[nH]cn1 [Histamine],0.645 ± 0.56,0.996 ± 0.027
Nc1nnc(-c2cccc(Cl)c2Cl)c(N)n1 [Lamotrigine],0.909 ± 0.14,0.727 ± 0.33
Nc1nc(CC(=O)Nc2ccc(CCNCC(O)c3ccccc3)cc2)cs1 (stereo not given) [Mirabegron],0.691 ± 0.22,1.03 ± 0.1
CN1CCC(=C2c3ccccc3C=Cc3ccccc32)CC1.Cl [Cyproheptadine hydrochloride],0.587 ± 0.32,0.939 ± 0.061
CC(=O)OC1(C(C)=O)CCC2C3C=C(C)C4=CC(=O)CCC4(C)C3CCC21C (stereo not given) [Megestrol Acetate],0.932 ± 0.079,0.738 ± 0.36
Cc1cc(S(=O)(=O)[O-])c2c(C)ccc(C(C)C)cc1-2.[Na+] [Sodium gualenate],0.85 ± 0.11,0.784 ± 0.014
CC(C)(C)c1nc(-c2cccc(NS(=O)(=O)c3c(F)cccc3F)c2F)c(-c2ccnc(N)n2)s1.CS(=O)(=O)O [Dabrafenib Mesylate],1.1 ± 0.24,0.924 ± 0.11
CC(N)c1ccc(C(=O)Nc2ccnc3[nH]ccc23)cc1.Cl.Cl (stereo not given),1.08 ± 0.29,0.841 ± 0.26
COC(=O)NC(C(=O)N1CCCC1c1ncc(-c2ccc(-c3ccc(-c4cnc(C5CCCN5C(=O)C(NC(=O)OC)C(C)C)[nH]4)cc3)cc2)[nH]1)C(C)C (stereo not given),0.979 ± 0.043,1.03 ± 0.18
CC(C)c1nc(CN(C)C(=O)NC(CCN2CCOCC2)C(=O)NC(CCC(Cc2ccccc2)NC(=O)OCc2cncs2)Cc2ccccc2)cs1 (stereo not given) [Cobicistat (GS-9350)],0.917 ± 0.11,0.854 ± 0.14
CC(C(=O)O)c1ccc2c(c1)CC(=O)c1ccccc1S2 (stereo not given) [Zaltoprofen],0.891 ± 0.073,0.866 ± 0.29
"Cc1c(C(=O)Nc2ccc(N3CC(C)OC(C)C3)nc2)cccc1-c1ccc(OC(F)(F)F)cc1 (stereo not given) [Sonidegib (Erismodegib, NVP-LDE225)]",0.831 ± 0.24,0.893 ± 0.16
CC(C)(C)c1nc(-c2cccc(NS(=O)(=O)c3c(F)cccc3F)c2F)c(-c2ccnc(N)n2)s1,0.905 ± 0.18,0.748 ± 0.3

# Not a retest: ten of the compounds above.
Compound,IL-6-GFP fluorescence (IL-6-GFP PC-9GR),IL-6-GFP fluorescence (IL-6-GFP PC-9)
CC(C)CC(NC(=O)C(Cc1ccccc1)NC(=O)c1cnccn1)B(O)O (stereo not given) [Bortezomib (PS-341)],1.1 ± 0.12,1.1 ± 0.27
NCCc1c[nH]cn1 [Histamine],0.645 ± 0.56,0.996 ± 0.027
Nc1nnc(-c2cccc(Cl)c2Cl)c(N)n1 [Lamotrigine],0.909 ± 0.14,0.727 ± 0.33
Nc1nc(CC(=O)Nc2ccc(CCNCC(O)c3ccccc3)cc2)cs1 (stereo not given) [Mirabegron],0.691 ± 0.22,1.03 ± 0.1
CN1CCC(=C2c3ccccc3C=Cc3ccccc32)CC1.Cl [Cyproheptadine hydrochloride],0.587 ± 0.32,0.939 ± 0.061
CC(=O)OC1(C(C)=O)CCC2C3C=C(C)C4=CC(=O)CCC4(C)C3CCC21C (stereo not given) [Megestrol Acetate],0.932 ± 0.079,0.738 ± 0.36
Cc1cc(S(=O)(=O)[O-])c2c(C)ccc(C(C)C)cc1-2.[Na+] [Sodium gualenate],0.85 ± 0.11,0.784 ± 0.014
CC(C)(C)c1nc(-c2cccc(NS(=O)(=O)c3c(F)cccc3F)c2F)c(-c2ccnc(N)n2)s1.CS(=O)(=O)O [Dabrafenib Mesylate],1.1 ± 0.24,0.924 ± 0.11
CC(N)c1ccc(C(=O)Nc2ccnc3[nH]ccc23)cc1.Cl.Cl (stereo not given),1.08 ± 0.29,0.841 ± 0.26
COC(=O)NC(C(=O)N1CCCC1c1ncc(-c2ccc(-c3ccc(-c4cnc(C5CCCN5C(=O)C(NC(=O)OC)C(C)C)[nH]4)cc3)cc2)[nH]1)C(C)C (stereo not given),0.979 ± 0.043,1.03 ± 0.18

# Further records:

Compound,IL-6-GFP fluorescence (IL-6-GFP PC-9GR),IL-6-GFP fluorescence (IL-6-GFP PC-9)
C=C1c2cccc(O)c2C(=O)C2=C(O)C3(O)C(=O)C(C(N)=O)=C(O)C(N(C)C)C3C(O)C12.Cl (stereo not given) [Methacycline HCl],0.933 ± 0.011,0.763 ± 0.23
CCCCOC(=O)c1ccccc1Nc1cccc(C(F)(F)F)c1 [Ufenamate],0.989 ± 0.033,0.85 ± 0.097
Nc1c(CC(=O)[O-])cccc1C(=O)c1ccc(Br)cc1.[Na+] [Bromfenac Sodium],0.544 ± 0.11,0.746 ± 0.078
O=C(CCCc1ccccc1)[O][Na] [Sodium Phenylbutyrate],0.707 ± 0.24,0.995 ± 0.062
O=C([O-])c1cc(N=Nc2ccc(O)c(C(=O)[O-])c2)ccc1O.[Na+].[Na+] [Olsalazine Sodium],0.768 ± 0.069,0.708 ± 0.013
CC(C)(O)c1ccccc1CCC(SCC1(CC(=O)O)CC1)c1cccc(/C=C/c2ccc3ccc(Cl)cc3n2)c1 (stereo not given) [Montelukast],0.927 ± 0.13,0.704 ± 0.029
COc1ccc(-c2cc(=S)ss2)cc1 [Anethole trithione],0.385 ± 0.32,0.734 ± 0.048
CC1CCC2(C(=O)OC3OC(COC4OC(CO)C(OC5OC(C)C(O)C(O)C5O)C(O)C4O)C(O)C(O)C3O)CCC3(C)C(=CCC4C5(C)CC(O)C(O)C(C)(CO)C5CCC43C)C2C1C (stereo not given) [Asiaticoside],0.9283 ± 0.0089,0.936 ± 0.25
Nc1ccn(C2OC(CO)C(O)C2(F)F)c(=O)n1 (stereo not given) [Gemcitabine],0.775 ± 0.25,1.2 ± 0.11
CC(C(=O)O)c1ccc(-c2ccccc2)c(F)c1 (stereo not given) [Flurbiprofen],0.799 ± 0.36,0.904 ± 0.15
CN1CCN(c2ccc(C(=O)Nc3n[nH]c4ccc(Cc5cc(F)cc(F)c5)cc34)c(NC3CCOCC3)c2)CC1 [Entrectinib (RXDX-101)],2 ± 0.45,1.56 ± 0.28
CCCCCOC(=O)Nc1nc(=O)n(C2OC(C)C(O)C2O)cc1F (stereo not given) [Capecitabine],1.13 ± 0.026,1.06 ± 0.11
COC(=O)NC(C(=O)N1CCCC1c1ncc(-c2ccc3c(c2)OC(c2ccccc2)n2c-3cc3cc(-c4cnc(C5CCCN5C(=O)C(NC(=O)OC)C(C)C)[nH]4)ccc32)[nH]1)C(C)C (stereo not given) [Elbasvir],2.23 ± 0.43,2.06 ± 0.29
Nc1nc(=S)c2[nH]cnc2[nH]1 [Thioguanine],0.56 ± 0.39,0.795 ± 0.045
O=C(NCC1CN(c2ccc(N3CCOCC3=O)cc2)C(=O)O1)c1ccc(Cl)s1 (stereo not given) [Rivaroxaban],1.03 ± 0.14,0.731 ± 0.29
CC(CN1c2ccccc2Sc2ccccc21)N(C)C.Cl (stereo not given) [Promethazine HCl],0.575 ± 0.068,1 ± 0.058
Nc1nc(=O)c2c([nH]1)NCC(CNc1ccc(C(=O)NC(CCC(=O)[O-])C(=O)[O-])cc1)N2C=O.O.O.O.O.O.[Ca+2] (stereo not given) [Leucovorin Calcium Pentahydrate],0.671 ± 0.18,0.686 ± 0.032
NC(=O)NO [Hydroxyurea],0.784 ± 0.15,0.959 ± 0.26
CCN(CC)Cc1cc(Nc2ccnc3cc(Cl)ccc23)ccc1O.Cl.Cl.O.O [Amodiaquine dihydrochloride dihydrate],0.698 ± 0.26,0.908 ± 0.13
COc1cc2ncnc(Nc3ccc(F)c(Cl)c3)c2cc1NC(=O)/C=C/CN1CCCCC1,0.965 ± 0.092,0.927 ± 0.02

Compound,IL-6-GFP fluorescence (IL-6-GFP PC-9GR),IL-6-GFP fluorescence (IL-6-GFP PC-9)
CCC(=O)OC1(C(=O)SCF)C(C)CC2C3CC(F)C4=CC(=O)C=CC4(C)C3(F)C(O)CC21C (stereo not given) [Fluticasone propionate],0.792 ± 0.39,0.922 ± 0.21
OCC1OC(c2ccc(F)c(Cc3cc4ccccc4s3)c2)C(O)C(O)C1O (stereo not given) [Ipragliflozin (ASP1941)],0.946 ± 0.13,0.665 ± 0.32
CONC(=O)Nc1ccc(-c2sc3c(c2CN(C)C)c(=O)n(-c2ccc(OC)nn2)c(=O)n3Cc2c(F)cccc2F)cc1 [Relugolix],0.968 ± 0.055,0.798 ± 0.019
CC(C)C(=O)Nc1ccc([N+](=O)[O-])c(C(F)(F)F)c1 [Flutamide],0.814 ± 0.11,0.933 ± 0.22
CCN1CCN(Cc2ccc(Nc3ncc(F)c(-c4cc(F)c5nc(C)n(C(C)C)c5c4)n3)nc2)CC1.CS(=O)(=O)O,1.12 ± 0.17,1.1 ± 0.25
CC(=O)OCC(=O)C1(O)CCC2C3CCC4=CC(=O)CCC4(C)C3C(=O)CC21C (stereo not given) [Cortisone acetate],1.17 ± 0.23,0.795 ± 0.071
CCC(=O)OC1(C(=O)CCl)C(C)CC2C3CC(F)C4=CC(=O)C=CC4(C)C3(F)C(O)CC21C (stereo not given) [Halobetasol Propionate],0.725 ± 0.41,1.14 ± 0.016
C=C1CCC2C(C)(CO)C(O)CCC2(C)C1C/C=C1\C=COC1=O (stereo not given) [Dehydroandrographolide],0.61 ± 0.34,0.879 ± 0.017
CNC(=O)c1ccc(N2C(=S)N(c3cnc(C#N)c(C(F)(F)F)c3)C(=O)C23CCC3)cc1F,0.892 ± 0.15,0.712 ± 0.1
CNCc1ccc(-c2[nH]c3cc(F)cc4c3c2CCNC4=O)cc1.O=P(O)(O)O,1.75 ± 0.031,2.53 ± 0.15
O=C(O)CCC(=O)c1ccc(-c2ccccc2)cc1 [Fenbufen],0.686 ± 0.32,1.07 ± 0.22
Cc1cnc(Nc2ccc(OCCN3CCCC3)cc2)nc1Nc1cccc(S(=O)(=O)NC(C)(C)C)c1,0.916 ± 0.026,1.033 ± 0.0012
O=C(c1cc(Cc2n[nH]c(=O)c3ccccc23)ccc1F)N1CCN(C(=O)C2CC2)CC1,1.16 ± 0.22,0.963 ± 0.029
N.N.O=C([O-])C1(C(=O)[O-])CCC1.[Pt+2] [Carboplatin],0.915 ± 0.28,0.813 ± 0.0089
CC/C(=C(\c1ccccc1)c1ccc(OCCN(C)C)cc1)c1ccccc1.O=C(O)CC(O)(CC(=O)O)C(=O)O [Tamoxifen],1 ± 0.057,0.889 ± 0.078
COC(=O)CC(O)(CCCC(C)(C)O)C(=O)OC1C(OC)=CC23CCCN2CCc2cc4c(cc2C13)OCO4 (stereo not given) [Homoharringtonine],1.1 ± 0.23,1.01 ± 0.12
Cc1cn(-c2cc(NC(=O)c3ccc(C)c(Nc4nccc(-c5cnccn5)n4)c3)cc(C(F)(F)F)c2)cn1 [Radotinib],1 ± 0.15,0.751 ± 0.33
C=CC(=O)Nc1cc(Nc2nccc(-c3cn(C)c4ccccc34)n2)c(OC)cc1N(C)CCN(C)C.CS(=O)(=O)O [Osimertinib mesylate],1.39 ± 0.23,1.18 ± 0.085
CC1=C(/C=C/C(C)=C/C=C/C(C)=C/C(=O)Nc2ccc(O)cc2)C(C)(C)CCC1 [Fenretinide],0.548 ± 0.14,0.27692 ± 8.3e-05
OCC1OC(OCC2OC(O)C(O)C(OC3OC(CO)C(O)C(OC4OC(CO)C(O)C(OC5OC(COC6OC(CO)C(O)C(O)C6O)C(O)C(OC6OC(CO)C(O)C(O)C6O)C5O)C4O)C3O)C2O)C(O)C(O)C1O (stereo not given) [Lentinan],0.871 ± 0.065,0.896 ± 0.15
